Measured values: PMC7573591 (Nature Communications, 2020)
These are yes or no findings as the source states them, for the method shown.

By UniProt entry, the sequences of proteins in these tests, tags left out. Residues count along the entry.
UniProt Q96E22, residues 73-293: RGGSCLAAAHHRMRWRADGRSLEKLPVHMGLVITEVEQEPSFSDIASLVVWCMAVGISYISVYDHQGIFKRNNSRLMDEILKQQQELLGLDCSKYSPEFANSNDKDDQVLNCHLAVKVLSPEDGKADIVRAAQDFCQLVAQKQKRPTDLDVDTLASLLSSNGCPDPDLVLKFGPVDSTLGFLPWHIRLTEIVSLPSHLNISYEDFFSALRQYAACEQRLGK

Target: soluble Nogo-B receptor, cytosolic domain (sNgBR, residues 73-293) (human) (UniProt Q96E22)
Experiment: cross-linking; about 8 µM purified shcis-PT with 0.005% glutaraldehyde, room temperature, 15 min; products analysed by SDS-PAGE; both purified

binding: no binding (tested: about 8 µM shcis-PT)
Substance: soluble Nogo-B receptor, cytosolic domain (sNgBR, residues 73-293) (from UniProt Q96E22 73-293) (domain or fragment)
